# Results from the supplement of paper PMC8728848.
# This is one part of the list.
# What was measured:
# Experiment in all cases: glycan array binding signal (z-score within array); higher = stronger binding
# Conditions in all cases: glycan notation: IUPAC condensed, linker removed
# [1] = molecular target: Neu5Gc(a2-8)Neu5Gc(a2-3)Gal(b1-4)GlcNAc(b1-3)Gal(b1-4)GlcNAc
# In short: (§1)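 Arrays were curated from the Consortium for Functional Glycomics database, 3228 in total, and kept only where the protein sequence was available. Binding is expressed as a within-array Z-score. This score was averaged across arrays of the same protein sequence at different concentrations or buffers and across linkers, and negative values can be read as non-binding.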
# [2] = molecular target: Neu5Gc(a2-8)Neu5Gc(a2-6)Gal(b1-4)GlcNAc
# In short: as §1
# [3] = molecular target: Neu5Gc(b2-6)Gal(b1-4)GlcNAc
# In short: as §1
binder,measurement,setting,value
"MtEccB1 (Mycobacterium tuberculosis H37Rv), O69734 (protein) MGLRLTTKVQVSGWRFLLRRLEHAIVRRDTRMFDDPLQFYSRSIALGIVVAVLILAGAALLAYFKPQGKLGGTSLFTDRATNQLYVLLSGQLHPVYNLTSARLVLGNPANPATVKSSELSKLPMGQTVGIPGAPYATPVSAGSTSIWTLCDTVARADSTSPVVQTAVIAMPLEIDASIDPLQSHEAVLVSYQGETWIVTTKGRHAIDLTDRALTSSMGIPVTARPTPISEGMFNALPDMGPWQLPPIPAAGAPNSLGLPDDLVIGSVFQIHTDKGPQYYVVLPDGIAQVNATTAAALRATQAHGLVAPPAMVPSLVVRIAERVYPSPLPDEPLKIVSRPQDPALCWSWQRSAGDQSPQSTVLSGRHLPISPSAMNMGIKQIHGTATVYLDGGKFVALQSPDPRYTESMYYIDPQGVRYGVPNAETAKSLGLSSPQNAPWEIVRLLVDGPVLSKDAALLEHDTLPADPSPRKVPAGASGAP",glycan array binding signal (z-score),[1],-1.2
same,glycan array binding signal (z-score),[2],-0.087
same,glycan array binding signal (z-score),[3],-0.779
